{"source": "patent US8017348B1", "about": "“Assay for Parkinson's Disease therapeutics” (Elan Pharma International Limited, priority 2005, dated 2011)", "test_system": "Parkin", "test": "GFPu assay in HEK293 cells transfected with wild type Parkin (aggresome formation / proteasome function)", "assay_type": "cell-based", "settings": "Homo sapiens", "method": "A summary of the finalized automation scheme is outlined in FIG. 12. Briefly, cells were manually transfected with Parkin using the Fugene Reagent (Roche) and then incubated for three hours at 37° C. After three hours of treatment with Fugene, transfection is over 80% complete (Roche personal communication). Compounds were then added to the cell plate at a final concentration of 10 uM using the Multimek™ Automated Pipettor. Compounds were incubated with cells for 45 hours at 37° C. and then the media was gently aspirated with the Multimek. A mixture of 1 ug/ml Hoechst dye and 4% paraformaldehyde were then added to the cells for 40 minutes at room temperature using the Titertek Multidrop™ Lab System. Cell plates were subsequently washed using the Tecan PowerWasher and then read on the Cellomcis ArrayScan. A detailed protocol outlining this process step by step is shown in Example 8. Using this protocol, we commonly achieved Z′ values above 0.6 and concomitant S/B ratios above 6 and therefore, the GFPu assay was ready for screening of the LOPAC library.\nThis example describes a protocol for the GFPu Assay in 96-well format. It will be appreciated that the protocol can be readily modified for other multi-well formats and that certain parameters can vary. […]\n11) Read on the ArrayScan using the Target Activation Bioapplication. […]", "note": "Read-outs that look alike come from different tables or passages of the source."}
{"compound": "COc1cc2c(c(OC)c1OC)-c1ccc(OC)c(=O)cc1[C@@H](NC(C)=O)CC2", "note": "[ELN476311, colchicine]", "values": [{"measurement": "IC50", "setting": "HEK293, GFPu assay, Parkin transfected cells, eight 2-fold dilutions 10 uM to about 78 nM, read-out: Parkin IC50", "result": "< 78", "unit": "nM"}, {"measurement": "IC50", "setting": "Parkin expressing HEK293 cells, read-out: IC50 in the GFPu assay", "result": "< 78", "unit": "nM"}]}
